Test results taken from paper PMC9239208.

Amino acid sequences for entries named in this document (tags omitted). A change or cut given only in a name is not applied to a line headed by its entry.
UniProt P62491: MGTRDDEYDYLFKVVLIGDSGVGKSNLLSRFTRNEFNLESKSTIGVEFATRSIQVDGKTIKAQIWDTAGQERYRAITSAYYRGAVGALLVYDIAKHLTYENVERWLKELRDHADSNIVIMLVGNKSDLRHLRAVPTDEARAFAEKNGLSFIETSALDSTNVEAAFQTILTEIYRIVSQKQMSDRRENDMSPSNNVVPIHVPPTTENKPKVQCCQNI
UniProt Q7L804: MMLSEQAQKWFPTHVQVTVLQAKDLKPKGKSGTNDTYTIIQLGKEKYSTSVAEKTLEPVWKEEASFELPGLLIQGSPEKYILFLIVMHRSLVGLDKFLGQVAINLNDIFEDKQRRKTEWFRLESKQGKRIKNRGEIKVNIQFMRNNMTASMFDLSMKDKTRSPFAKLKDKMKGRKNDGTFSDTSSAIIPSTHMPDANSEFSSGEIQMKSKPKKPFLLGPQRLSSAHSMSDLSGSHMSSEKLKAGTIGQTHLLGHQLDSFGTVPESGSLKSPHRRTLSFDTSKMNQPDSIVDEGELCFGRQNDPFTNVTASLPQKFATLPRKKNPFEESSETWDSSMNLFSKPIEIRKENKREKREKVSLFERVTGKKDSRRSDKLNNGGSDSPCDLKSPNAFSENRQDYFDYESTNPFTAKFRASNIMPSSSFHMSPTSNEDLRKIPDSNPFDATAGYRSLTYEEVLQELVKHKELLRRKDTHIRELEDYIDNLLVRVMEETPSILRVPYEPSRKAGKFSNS

B1: Rab11 family-interacting protein 5 (FIP5) (protein, UniProt Q9BXF6 1-653)
chain: MALVRGAEPAAGPSRWLPTHVQVTVLRARGLRGKSSGAGSTSDAYTVIQVGREKYSTSVVEKTHGCPEWREECSFELPPGALDGLLRAQEADAGPAPWAASSAAACELVLTTMHRSLIGVDKFLGQATVALDEVFGAGRAQHTQWYKLHSKPGKKEKERGEIEVTIQFTRNNLSASMFDLSMKDKPRSPFSKIRDKMKGKKKYDLESASAILPSSAIEDPDLGSLGKMGKAKGFFLRNKLRKSSLTQSNTSLGSDSTLSSASGSLAYQGPGAELLTRSPSRSSWLSTEGGRDSAQSPKLFTHKRTYSDEANQMRVAPPRALLDLQGHLDAASRSSLCVNGSHIYNEEPQGPVRHRSSISGSLPSSGSLQAVSSRFSEEGPRSTDDTWPRGSRSNSSSEAVLGQEELSAQAKVLAPGASHPGEEEGARLPEGKPVQVATPIVASSEAVAEKEGARKEERKPRMGLFHHHHQGLSRSELGRRSSLGEKGGPILGASPHHSSSGEEKAKSSWFGLREAKDPTQKPSPHPVKPLSAAPVEGSPDRKQSRSSLSIALSSGLEKLKTVTSGSIQPVTQAPQAGQMVDTKRLKDSAVLDQSAKYYHLTHDELISLLLQRERELSQRDEHVQELESYIDRLLVRIMETSPTLLQIPPGPPK
B2: ARHGAP1, a Rho GTPase-activating protein (protein, UniProt Q07960 1-439)
chain: MDPLSELQDDLTLDDTSEALNQLKLASIDEKNWPSDEMPDFPKSDDSKSSSPELVTHLKWDDPYYDIARHQIVEVAGDDKYGRKIIVFSACRMPPSHQLDHSKLLGYLKHTLDQYVESDYTLLYLHHGLTSDNKPSLSWLRDAYREFDRKYKKNIKALYIVHPTMFIKTLLILFKPLISFKFGQKIFYVNYLSELSEHVKLEQLGIPRQVLKYDDFLKSTQKSPATAPKPMPPRPPLPNQQFGVSLQHLQEKNPEQEPIPIVLRETVAYLQAHALTTEGIFRRSANTQVVREVQQKYNMGLPVDFDQYNELHLPAVILKTFLRELPEPLLTFDLYPHVVGFLNIDESQRVPATLQVLQTLPEENYQVLRFLTAFLVQISAHSDQNKMTNTNLAVVFGPNLLWAKDAAITLKAINPINTFTKFLLDHQGELFPSPDPSGL

Biological target: myc-tagged R118G-mutated BirA (BirA*)-fused Rab11a (UniProt P62491)
Experiment: proximity labelling

Row | binding | Molecule
1 | binds | Rab11 family-interacting protein 2 (FIP2) (from UniProt Q7L804 1-512)
2 | binds | B1
3 | binds | B2

No constants are given. Whether binding was seen depends on the method and setting. In cells and extracts the contact can be indirect. Here binding means that the protein was enriched with, or labelled near, the bait; the list need not be complete.
